Results are given in words; binding and its absence hold for the method and conditions named. Some entries that bind do so weakly or less than the wild type. Sequences can lack the tags named with a protein.
Columns and labels:
[1] = molecular target: T1, GlyR-α3L-mCherry (glycine receptor α3 subunit, long splice variant L, N-terminally tagged with mCherry) (mouse) (UniProt Q91XP5); test: dual-color temporal image cross-correlation spectroscopy (TICCS); live HEK293 cells, alternating two-colour TIRF excitation, room temperature; clusters removed by static mask; relative cross-correlation of eGFP and mCherry channels
T1 sequence: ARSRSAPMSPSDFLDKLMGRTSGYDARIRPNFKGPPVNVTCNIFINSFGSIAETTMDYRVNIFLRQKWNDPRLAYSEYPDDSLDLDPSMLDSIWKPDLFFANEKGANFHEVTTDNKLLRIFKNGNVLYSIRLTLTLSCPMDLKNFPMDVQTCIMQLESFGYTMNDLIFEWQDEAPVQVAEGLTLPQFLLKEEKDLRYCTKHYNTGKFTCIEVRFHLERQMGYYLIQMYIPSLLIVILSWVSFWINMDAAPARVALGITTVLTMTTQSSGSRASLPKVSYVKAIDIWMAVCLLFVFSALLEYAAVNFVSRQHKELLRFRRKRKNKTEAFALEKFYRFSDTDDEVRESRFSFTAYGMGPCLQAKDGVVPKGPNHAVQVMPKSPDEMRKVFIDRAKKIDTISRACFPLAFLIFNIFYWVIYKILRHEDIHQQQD

By UniProt entry, the sequences of proteins in these tests, tags left out.
UniProt P07948: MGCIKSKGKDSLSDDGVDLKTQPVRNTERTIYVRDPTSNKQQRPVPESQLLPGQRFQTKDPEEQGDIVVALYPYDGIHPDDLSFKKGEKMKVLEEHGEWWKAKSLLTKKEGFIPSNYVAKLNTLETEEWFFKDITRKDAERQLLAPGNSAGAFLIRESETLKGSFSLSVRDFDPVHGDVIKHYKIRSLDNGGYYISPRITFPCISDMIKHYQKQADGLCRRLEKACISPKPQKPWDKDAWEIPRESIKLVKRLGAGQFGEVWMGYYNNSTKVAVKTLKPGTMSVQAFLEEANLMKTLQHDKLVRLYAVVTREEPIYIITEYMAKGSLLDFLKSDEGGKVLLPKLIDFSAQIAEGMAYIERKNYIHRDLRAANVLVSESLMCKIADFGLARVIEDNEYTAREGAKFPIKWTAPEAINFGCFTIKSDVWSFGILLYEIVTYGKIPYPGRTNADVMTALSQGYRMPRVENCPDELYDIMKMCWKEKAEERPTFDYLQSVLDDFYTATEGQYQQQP

[2] = molecular target: Lyn-mCherry (tyrosine-protein kinase Lyn coupled to mCherry) (UniProt P07948); test: as above
[3] = molecular target: GlyR-α3L-eGFP (glycine receptor α3 subunit, long splice variant L, N-terminally tagged with eGFP) (mouse) (UniProt Q91XP5); test: subunit counting by stepwise photobleaching (TIRF microscopy); fixed HEK293 cells with low copy number expression (50 ng GlyR-α3L-eGFP, 0-500 ng GlyR-α3K-mCherry); eGFP bleaching steps per diffraction-limited spot, step histogram fitted with binomial models; room temperature

B1: GlyR-α3L-eGFP (glycine receptor α3 subunit, long splice variant L, N-terminally tagged with eGFP) (receptor, mouse, UniProt Q91XP5 34-464, looked up)
chain: T1 sequence
notes: Glycine receptor subunit alpha-3, mouse, splice variant L (464 residues); The receptor assembles as a pentamer; the molecule here is the subunit; also called L variant; GlyR-α3L-FP; source: HEK293, transiently transfected (calcium phosphate; truncated CMV promoter), in the membrane of live or fixed cells; not shown: eGFP, N-terminal, kept
For B1, the binding [1] was “binds”, the binding [2] was “no binding” and the binding [3] was “binds”.
